# The other results are listed elsewhere or left out.
# Columns and labels:
# Assay in all cases: glycan array binding signal (z-score within array); higher = stronger binding
# Conditions in all cases: glycan notation: IUPAC condensed, linker removed
# [1] = biological target: Gal(b1-3)GalNAc
# Procedure, shortened: (§1)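 The binding signal is a Z-score computed within each array and averaged over linkers. Arrays of the same protein sequence at different concentrations or buffers were also averaged together. Data originate from 3228 arrays in the Consortium for Functional Glycomics database, kept only where the protein sequence was available.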
# [2] = biological target: Gal(b1-3)GalNAc(b1-3)Gal(a1-4)Gal(b1-4)Glc
# Procedure, shortened: as §1
# [3] = biological target: Gal(b1-3)GalNAc(b1-3)Gal(b1-4)Glc
# Procedure, shortened: as §1
# [4] = biological target: Gal(b1-3)GalNAc(b1-3)Gal(b1-4)GlcNAc
# Procedure, shortened: as §1
# [5] = biological target: Gal(b1-3)GalNAc(b1-4)Gal(b1-4)Glc
# Procedure, shortened: as §1
# [6] = biological target: Gal(b1-3)GalNAc(b1-4)[Neu5Ac(a2-3)]Gal(b1-4)Glc
# Procedure, shortened: as §1
# [7] = biological target: Gal(b1-3)GlcNAc(b1-3)Gal(b1-3)GlcNAc
# Procedure, shortened: as §1
# [8] = biological target: Gal(b1-3)[Fuc(a1-4)]GlcNAc
# Procedure, shortened: as §1
# [9] = biological target: Gal(b1-3)[Fuc(a1-4)]GlcNAc(b1-3)Gal(b1-3)[Fuc(a1-4)]GlcNAc
# Procedure, shortened: as §1
# [10] = biological target: Gal(b1-3)[Fuc(a1-4)]GlcNAc(b1-3)Gal(b1-4)GlcNAc
# Procedure, shortened: as §1
# [11] = biological target: Gal(b1-3)[Fuc(a1-4)]GlcNAc(b1-3)Gal(b1-4)[Fuc(a1-3)]GlcNAc
# Procedure, shortened: as §1
# [12] = biological target: Gal(b1-3)[GlcNAc(b1-6)]GalNAc
# Procedure, shortened: as §1
# [13] = biological target: Gal(b1-3)[GlcNAc(b1-6)]GlcNAc
# Procedure, shortened: as §1
# [14] = biological target: Gal(b1-3)[Neu5Ac(a2-6)]GalNAc
# Procedure, shortened: as §1
# [15] = biological target: Gal(b1-3)[Neu5Ac(a2-6)]GlcNAc
# Procedure, shortened: as §1
# [16] = biological target: Gal(b1-3)[Neu5Ac(a2-6)]GlcNAc(a1-4)Gal(b1-4)Glc
# Procedure, shortened: as §1
# [17] = biological target: Gal(b1-3)[Neu5Ac(b2-6)]GlcNAc
# Procedure, shortened: as §1
# [18] = biological target: Gal(b1-4)GalNAc(a1-3)[Fuc(a1-2)]Gal(b1-4)GlcNAc
# Procedure, shortened: as §1
# [19] = biological target: Gal(b1-4)GalNAc(b1-3)[Fuc(a1-2)]Gal(b1-4)GlcNAc
# Procedure, shortened: as §1
# [20] = biological target: Gal(b1-4)Glc
# Procedure, shortened: as §1
# [21] = biological target: Gal(b1-4)Glc6S
# Procedure, shortened: as §1
# [22] = biological target: Gal(b1-4)GlcNAc
# Procedure, shortened: as §1
# [23] = biological target: Gal(b1-4)GlcNAc(b1-2)Man(a1-3)[Gal(b1-4)GlcNAc(b1-2)Man(a1-6)]Man(b1-4)GlcNAc(b1-4)GlcNAc
# Procedure, shortened: as §1
# [24] = biological target: Gal(b1-4)GlcNAc(b1-3)Gal(b1-3)GlcNAc
# Procedure, shortened: as §1
# [25] = biological target: Gal(b1-4)GlcNAc(b1-3)Gal(b1-4)Glc
# Procedure, shortened: as §1
# [26] = biological target: Gal(b1-4)GlcNAc(b1-3)Gal(b1-4)GlcNAc
# Procedure, shortened: as §1
# [27] = biological target: Gal(b1-4)GlcNAc(b1-3)Gal(b1-4)GlcNAc(b1-3)Gal(b1-4)GlcNAc
# Procedure, shortened: as §1
# [28] = biological target: Gal(b1-4)GlcNAc(b1-3)Gal(b1-4)[Fuc(a1-3)]GlcNAc(b1-3)Gal(b1-4)[Fuc(a1-3)]GlcNAc
# Procedure, shortened: as §1
# [29] = biological target: Gal(b1-4)GlcNAc(b1-3)GalNAc
# Procedure, shortened: as §1
# [30] = biological target: Gal(b1-4)GlcNAc(b1-3)[Gal(b1-4)GlcNAc(b1-6)]GalNAc
# Procedure, shortened: as §1
# [31] = biological target: Gal(b1-4)GlcNAc(b1-6)GalNAc
# Procedure, shortened: as §1
# [32] = biological target: Gal(b1-4)GlcNAc(b1-6)[Gal(b1-3)]GalNAc
# Procedure, shortened: as §1
# [33] = biological target: Gal(b1-4)GlcNAc(b1-6)[Gal(b1-3)]GlcNAc
# Procedure, shortened: as §1
# [34] = biological target: Gal3S(b1-3)GalNAc
# Procedure, shortened: as §1
# [35] = biological target: Gal3S(b1-3)GlcNAc
# Procedure, shortened: as §1
# [36] = biological target: Gal3S(b1-3)[Fuc(a1-4)]GlcNAc
# Procedure, shortened: as §1
# [37] = biological target: Gal3S(b1-4)Glc
# Procedure, shortened: as §1
# [38] = biological target: Gal3S(b1-4)Glc6S
# Procedure, shortened: as §1
# [39] = biological target: Gal3S(b1-4)GlcNAc
# Procedure, shortened: as §1
# [40] = biological target: Gal3S(b1-4)GlcNAc6S
# Procedure, shortened: as §1
# [41] = biological target: Gal3S6S(b1-4)GlcNAc
# Procedure, shortened: as §1
# [42] = biological target: Gal3S6S(b1-4)GlcNAc6S
# Procedure, shortened: as §1
# [43] = biological target: Gal4S(b1-4)GlcNAc
# Procedure, shortened: as §1
# [44] = biological target: Gal4S6S(b1-4)GlcNAc
# Procedure, shortened: as §1
# [45] = biological target: Gal6S(b1-4)Glc
# Procedure, shortened: as §1
# [46] = biological target: Gal6S(b1-4)Glc6S
# Procedure, shortened: as §1
# [47] = biological target: Gal6S(b1-4)GlcNAc
# Procedure, shortened: as §1
# [48] = biological target: GalNAc(a1-3)Gal
# Procedure, shortened: as §1
# [49] = biological target: GalNAc(a1-3)GalNAc
# Procedure, shortened: as §1
# [50] = biological target: GalNAc(b1-3)Gal(a1-4)Gal(b1-4)GlcNAc
# Procedure, shortened: as §1
# [51] = biological target: GalNAc(b1-4)GlcNAc
# Procedure, shortened: as §1
# [52] = biological target: Glc(a1-4)Glc
# Procedure, shortened: as §1
# [53] = biological target: Glc(a1-6)Glc(a1-6)Glc
# Procedure, shortened: as §1
# [54] = biological target: Glc(b1-4)Glc
# Procedure, shortened: as §1
# [55] = biological target: Glc(b1-6)Glc
# Procedure, shortened: as §1
# [56] = biological target: GlcA(b1-3)Gal
# Procedure, shortened: as §1
# [57] = biological target: GlcA(b1-6)Gal
# Procedure, shortened: as §1
# [58] = biological target: GlcNAc(a1-3)Gal(b1-4)GlcNAc
# Procedure, shortened: as §1
# [59] = biological target: GlcNAc(a1-6)Gal(b1-4)GlcNAc
# Procedure, shortened: as §1
# [60] = biological target: GlcNAc(b1-2)Gal(b1-3)GlcNAc
# Procedure, shortened: as §1
binder,measurement,setting,value
"MLTim-4 (Mus musculus), Q6U7R4 (protein) MSKGLLLLWLVTELWWLYLTPAASEDTIIGFLGQPVTLPCHYLSWSQSRNSMCWGKGSCPNSKCNAELLRTDGTRIISRKSTKYTLLGKVQFGEVSLTISNTNRGDSGVYCCRIEVPGWFNDVKKNVRLELRRAT",glycan array binding signal (z-score),[1],0.057
same,glycan array binding signal (z-score),[2],-0.243
same,glycan array binding signal (z-score),[3],-1.06
same,glycan array binding signal (z-score),[4],-0.928
same,glycan array binding signal (z-score),[5],-0.32
same,glycan array binding signal (z-score),[6],-0.834
same,glycan array binding signal (z-score),[7],-0.226
same,glycan array binding signal (z-score),[8],-0.424
same,glycan array binding signal (z-score),[9],0.784
same,glycan array binding signal (z-score),[10],-0.367
same,glycan array binding signal (z-score),[11],-0.44
same,glycan array binding signal (z-score),[12],0.397
same,glycan array binding signal (z-score),[13],0.058
same,glycan array binding signal (z-score),[14],-0.297
same,glycan array binding signal (z-score),[15],0.218
same,glycan array binding signal (z-score),[16],0.255
same,glycan array binding signal (z-score),[17],-1.01
same,glycan array binding signal (z-score),[18],-0.197
same,glycan array binding signal (z-score),[19],-0.991
same,glycan array binding signal (z-score),[20],1.06
same,glycan array binding signal (z-score),[21],0.287
same,glycan array binding signal (z-score),[22],-0.293
same,glycan array binding signal (z-score),[23],-0.041
same,glycan array binding signal (z-score),[24],0.48
same,glycan array binding signal (z-score),[25],-0.566
same,glycan array binding signal (z-score),[26],-0.679
same,glycan array binding signal (z-score),[27],0.062
same,glycan array binding signal (z-score),[28],0.134
same,glycan array binding signal (z-score),[29],-0.179
same,glycan array binding signal (z-score),[30],-0.548
same,glycan array binding signal (z-score),[31],-0.284
same,glycan array binding signal (z-score),[32],0.437
same,glycan array binding signal (z-score),[33],0.243
same,glycan array binding signal (z-score),[34],-0.428
same,glycan array binding signal (z-score),[35],-0.334
same,glycan array binding signal (z-score),[36],-0.574
same,glycan array binding signal (z-score),[37],0.501
same,glycan array binding signal (z-score),[38],0.308
same,glycan array binding signal (z-score),[39],-0.503
same,glycan array binding signal (z-score),[40],-0.435
same,glycan array binding signal (z-score),[41],-0.274
same,glycan array binding signal (z-score),[42],-0.043
same,glycan array binding signal (z-score),[43],-0.604
same,glycan array binding signal (z-score),[44],-0.565
same,glycan array binding signal (z-score),[45],0.602
same,glycan array binding signal (z-score),[46],-0.372
same,glycan array binding signal (z-score),[47],-0.672
same,glycan array binding signal (z-score),[48],0.196
same,glycan array binding signal (z-score),[49],-0.086
same,glycan array binding signal (z-score),[50],-0.688
same,glycan array binding signal (z-score),[51],-0.379
same,glycan array binding signal (z-score),[52],0.722
same,glycan array binding signal (z-score),[53],0.744
same,glycan array binding signal (z-score),[54],1.36
same,glycan array binding signal (z-score),[55],1.42
same,glycan array binding signal (z-score),[56],6.6
same,glycan array binding signal (z-score),[57],2.97
same,glycan array binding signal (z-score),[58],-0.886
same,glycan array binding signal (z-score),[59],-0.414
same,glycan array binding signal (z-score),[60],-0.296

# A different layout for some results above.
binder | measurement | setting | value
MLTim-4 (Mus musculus), Q6U7R4 (protein) MSKGLLLLWLVTELWWLYLTPAASEDTIIGFLGQPVTLPCHYLSWSQSRNSMCWGKGSCPNSKCNAELLRTDGTRIISRKSTKYTLLGKVQFGEVSLTISNTNRGDSGVYCCRIEVPGWFNDVKKNVRLELRRAT | glycan array binding signal (z-score) | [7] | -0.226
same | glycan array binding signal (z-score) | [26] | -0.679
same | glycan array binding signal (z-score) | [27] | 0.062
same | glycan array binding signal (z-score) | [30] | -0.548
same | glycan array binding signal (z-score) | [32] | 0.437

# From the supplement of paper PMC8728848
